Here are results for four molecules from patent US20220081485A1.

This assay concerns the target IL4R-mFc (human IL-4R extracellular domain fused to murine IgG2a Fc) (human (Homo sapiens)). Nature of the assay: blocking ELISA: antibody gradient with IL4-his at a fixed concentration on coated IL4R-mFc; bound IL4-his detected with HRP-mouse-anti-his IgG. (ELISA stands for enzyme-linked immunosorbent assay.)

Results are given in words; binding and its absence hold for the method and conditions named. Some binding calls cover weakened binding; strength is not graded here.

B1: L10C2-IgG4 (antibody, V domains shown)
VH: EVQLVESGGGLVQPGGSLRLSCAVSGFTFSSYAMSWVRQAPGKGLEWVSSITGGGGGIYYADSVKGRFTISRDNSKNTVYLQMNSLRAEDTAVYYCAKDRISITIRPRYFGLDFWGQGTTVTVSS
VL: DIVMTQSPLSLPVTAGAPASISCRSSQSLLYSNGYNYLDWYMQKPGQSPQLLIYLGSNRASGVPDRFSGSGSGTDFTLKISRVEAEDVGVYYCMQALETPYAFGQGTKVEIKR
On to B1, for which the binding result was “binds”.

B2: L18D7-IgG4 (antibody, V domains shown)
VH: EVQLVESGGGLVQPGGSLRLSCAVSGFTFSSYAMSWVRQAPGKGLEWVSSITGGGGGIYYADSVKGRFTISRDNSKNTVYLQMNSLRAEDTAVYYCAKDRISITIRPRYFGLDFWGQGTTVTVSS
VL: DIVMTQSPLSLPVTPGEPASISCRSSQSLLYSIGYNYLDWYLQKSGQSPQLLIYLGSNRASGVPDRFSGSGSGTDFTLKISRVEAEDVGFYYCMQSFKAPYTFGQGTKLEIKR
Consider B2, for which the binding entry is on record as “binds”.

B3: L28F8-IgG4 (antibody, V domains shown)
VH: EVQLVESGGGLVQPGGSLRLSCAVSGFTFSSYAMSWVRQAPGKGLEWVSSITGGGGGIYYADSVKGRFTISRDNSKNTVYLQMNSLRAEDTAVYYCAKDRISITIRPRYFGLDFWGQGTTVTVSS
VL: DIVMTQSPLSLPVTPGEPASISCRSSQNVVYGNGYNYLDWYLQKSGQSPQLLIYLGTNVAAGVPDRFSGSGSGTDFTLKISRVEAEDVGFYYCMQSLQAPYTFGQGTKLEIKR
As for B3, the binding result is on record as “binds”.

B4: L10B2-IgG4 (antibody, V domains shown)
VH: EVQLVESGGGLVQPGGSLRLSCAVSGFTFSSYAMSWVRQAPGKGLEWVSSITGGGGGIYYADSVKGRFTISRDNSKNTVYLQMNSLRAEDTAVYYCAKDRISITIRPRYFGLDFWGQGTTVTVSS
VL: DIVMTQSPLSLPVTPGEPASISCRSSHNLLYSNGYNYLDWYLQKPGQSPQLLIYLGSNRAYGVPDRFSGSGSGTDFTLKISRVEAEDVGVYHCMQALQSPYTFGQGTKVDIKR
In the case of B4, the binding result is “binds”.
